According to the supplement of paper PMC10849652:
Some of the results follow.

Protein sequences, listed by entry. Tags and fused reporters are not part of them. Lines headed by an entry give the natural chain unless they say otherwise; changes in a name come on top.
UniProt Q9NWU2, whole entry, looked up: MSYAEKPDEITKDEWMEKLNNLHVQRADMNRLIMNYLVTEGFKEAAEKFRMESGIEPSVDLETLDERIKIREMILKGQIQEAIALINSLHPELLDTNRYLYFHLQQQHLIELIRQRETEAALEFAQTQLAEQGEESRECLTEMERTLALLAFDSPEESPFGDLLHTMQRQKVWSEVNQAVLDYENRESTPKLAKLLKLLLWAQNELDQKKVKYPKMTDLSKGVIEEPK
UniProt Q3T8J9: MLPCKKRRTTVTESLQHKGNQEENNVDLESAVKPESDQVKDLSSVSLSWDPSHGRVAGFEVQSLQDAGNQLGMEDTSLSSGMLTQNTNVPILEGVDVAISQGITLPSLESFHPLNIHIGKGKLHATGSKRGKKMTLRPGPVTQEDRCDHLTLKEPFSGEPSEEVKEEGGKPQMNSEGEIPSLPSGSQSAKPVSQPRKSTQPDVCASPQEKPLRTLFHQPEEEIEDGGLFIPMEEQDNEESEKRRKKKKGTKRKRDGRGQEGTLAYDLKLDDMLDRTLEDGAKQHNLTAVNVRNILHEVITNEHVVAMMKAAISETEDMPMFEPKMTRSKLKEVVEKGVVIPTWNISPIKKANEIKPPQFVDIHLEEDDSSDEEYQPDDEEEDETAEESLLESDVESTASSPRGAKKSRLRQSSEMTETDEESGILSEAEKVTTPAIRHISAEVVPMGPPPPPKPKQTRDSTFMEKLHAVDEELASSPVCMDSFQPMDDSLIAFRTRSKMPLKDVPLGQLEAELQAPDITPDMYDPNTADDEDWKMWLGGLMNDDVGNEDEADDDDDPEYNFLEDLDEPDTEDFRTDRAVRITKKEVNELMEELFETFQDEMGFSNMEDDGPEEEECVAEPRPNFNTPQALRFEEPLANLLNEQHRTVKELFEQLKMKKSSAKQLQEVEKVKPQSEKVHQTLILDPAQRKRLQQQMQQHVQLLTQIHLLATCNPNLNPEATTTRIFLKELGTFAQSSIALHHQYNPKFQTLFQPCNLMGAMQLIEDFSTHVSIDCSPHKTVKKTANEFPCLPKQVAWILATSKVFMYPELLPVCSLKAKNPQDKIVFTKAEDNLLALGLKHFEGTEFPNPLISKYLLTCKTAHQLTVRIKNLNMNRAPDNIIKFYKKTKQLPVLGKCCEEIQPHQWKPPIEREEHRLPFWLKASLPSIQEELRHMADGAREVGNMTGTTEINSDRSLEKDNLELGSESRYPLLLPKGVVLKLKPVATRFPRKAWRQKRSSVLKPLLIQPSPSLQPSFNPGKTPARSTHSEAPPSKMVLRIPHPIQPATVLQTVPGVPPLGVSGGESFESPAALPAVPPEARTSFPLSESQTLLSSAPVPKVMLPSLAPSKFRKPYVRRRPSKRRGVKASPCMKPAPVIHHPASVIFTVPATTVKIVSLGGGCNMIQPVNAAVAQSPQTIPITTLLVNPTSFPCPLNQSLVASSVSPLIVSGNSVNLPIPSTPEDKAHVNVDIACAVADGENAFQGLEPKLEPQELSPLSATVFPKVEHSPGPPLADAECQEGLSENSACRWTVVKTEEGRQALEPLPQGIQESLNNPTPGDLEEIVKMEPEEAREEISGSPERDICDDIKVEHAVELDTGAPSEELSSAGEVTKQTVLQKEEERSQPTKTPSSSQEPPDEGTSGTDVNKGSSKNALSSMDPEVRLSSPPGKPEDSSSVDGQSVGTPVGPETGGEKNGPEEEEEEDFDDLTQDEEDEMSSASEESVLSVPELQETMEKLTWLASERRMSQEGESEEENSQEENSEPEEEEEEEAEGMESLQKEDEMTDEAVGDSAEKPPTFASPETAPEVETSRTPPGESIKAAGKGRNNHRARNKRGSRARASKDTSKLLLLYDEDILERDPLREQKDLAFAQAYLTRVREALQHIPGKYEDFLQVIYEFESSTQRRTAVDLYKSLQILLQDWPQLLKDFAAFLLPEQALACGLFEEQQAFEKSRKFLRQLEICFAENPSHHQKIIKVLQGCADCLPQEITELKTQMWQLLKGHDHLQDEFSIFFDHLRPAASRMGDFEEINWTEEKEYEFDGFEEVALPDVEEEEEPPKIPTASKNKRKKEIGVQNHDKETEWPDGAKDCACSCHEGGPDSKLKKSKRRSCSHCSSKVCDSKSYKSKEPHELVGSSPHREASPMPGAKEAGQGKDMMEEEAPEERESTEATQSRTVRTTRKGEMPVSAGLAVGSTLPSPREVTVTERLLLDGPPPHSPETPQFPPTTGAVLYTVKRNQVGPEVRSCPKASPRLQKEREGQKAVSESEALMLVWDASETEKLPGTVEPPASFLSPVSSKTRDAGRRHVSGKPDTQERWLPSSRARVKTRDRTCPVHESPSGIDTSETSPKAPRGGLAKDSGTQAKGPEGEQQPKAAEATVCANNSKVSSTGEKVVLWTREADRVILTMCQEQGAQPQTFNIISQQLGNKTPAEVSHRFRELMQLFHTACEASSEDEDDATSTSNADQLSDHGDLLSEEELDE
UniProt Q8TDQ7: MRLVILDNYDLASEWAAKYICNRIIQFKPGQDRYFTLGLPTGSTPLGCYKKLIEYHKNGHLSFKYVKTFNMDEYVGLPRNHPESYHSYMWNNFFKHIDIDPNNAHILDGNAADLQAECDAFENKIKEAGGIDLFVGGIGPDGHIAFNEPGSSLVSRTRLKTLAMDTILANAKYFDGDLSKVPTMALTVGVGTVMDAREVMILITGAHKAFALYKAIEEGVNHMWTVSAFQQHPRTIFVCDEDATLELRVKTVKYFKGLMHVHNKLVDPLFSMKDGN
UniProt Q9Y248: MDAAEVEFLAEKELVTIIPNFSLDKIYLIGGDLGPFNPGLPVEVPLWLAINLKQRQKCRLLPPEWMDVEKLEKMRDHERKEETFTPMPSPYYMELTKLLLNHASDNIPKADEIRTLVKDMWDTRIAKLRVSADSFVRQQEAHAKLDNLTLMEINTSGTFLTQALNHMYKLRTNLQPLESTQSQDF
UniProt Q9NQX3: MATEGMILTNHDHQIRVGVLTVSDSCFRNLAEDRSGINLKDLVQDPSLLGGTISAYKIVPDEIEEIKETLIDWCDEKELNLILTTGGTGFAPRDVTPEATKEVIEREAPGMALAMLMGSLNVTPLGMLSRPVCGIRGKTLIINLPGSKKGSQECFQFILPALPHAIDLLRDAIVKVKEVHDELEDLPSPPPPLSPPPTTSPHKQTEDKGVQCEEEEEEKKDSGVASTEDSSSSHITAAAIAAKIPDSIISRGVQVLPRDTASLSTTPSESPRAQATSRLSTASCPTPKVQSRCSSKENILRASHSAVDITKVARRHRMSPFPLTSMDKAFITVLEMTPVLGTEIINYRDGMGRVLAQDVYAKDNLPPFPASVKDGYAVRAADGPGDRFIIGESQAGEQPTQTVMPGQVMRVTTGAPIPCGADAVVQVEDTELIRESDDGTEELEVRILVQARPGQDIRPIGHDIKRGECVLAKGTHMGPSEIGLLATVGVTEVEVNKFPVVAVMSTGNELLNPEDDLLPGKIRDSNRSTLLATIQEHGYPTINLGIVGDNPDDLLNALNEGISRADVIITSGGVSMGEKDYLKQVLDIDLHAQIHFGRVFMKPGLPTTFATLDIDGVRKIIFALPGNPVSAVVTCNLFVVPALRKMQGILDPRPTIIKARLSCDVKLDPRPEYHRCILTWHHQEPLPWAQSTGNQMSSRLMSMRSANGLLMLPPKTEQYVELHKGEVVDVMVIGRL
UniProt Q9HC38: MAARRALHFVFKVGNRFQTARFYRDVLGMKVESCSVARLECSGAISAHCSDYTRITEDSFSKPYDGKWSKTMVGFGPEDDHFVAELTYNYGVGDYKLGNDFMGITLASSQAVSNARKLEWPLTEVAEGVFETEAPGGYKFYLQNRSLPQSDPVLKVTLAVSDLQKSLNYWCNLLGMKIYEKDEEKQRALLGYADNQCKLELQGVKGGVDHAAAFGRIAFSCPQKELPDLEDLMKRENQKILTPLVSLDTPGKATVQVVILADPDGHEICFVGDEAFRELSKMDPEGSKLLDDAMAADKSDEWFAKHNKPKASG
UniProt P16278: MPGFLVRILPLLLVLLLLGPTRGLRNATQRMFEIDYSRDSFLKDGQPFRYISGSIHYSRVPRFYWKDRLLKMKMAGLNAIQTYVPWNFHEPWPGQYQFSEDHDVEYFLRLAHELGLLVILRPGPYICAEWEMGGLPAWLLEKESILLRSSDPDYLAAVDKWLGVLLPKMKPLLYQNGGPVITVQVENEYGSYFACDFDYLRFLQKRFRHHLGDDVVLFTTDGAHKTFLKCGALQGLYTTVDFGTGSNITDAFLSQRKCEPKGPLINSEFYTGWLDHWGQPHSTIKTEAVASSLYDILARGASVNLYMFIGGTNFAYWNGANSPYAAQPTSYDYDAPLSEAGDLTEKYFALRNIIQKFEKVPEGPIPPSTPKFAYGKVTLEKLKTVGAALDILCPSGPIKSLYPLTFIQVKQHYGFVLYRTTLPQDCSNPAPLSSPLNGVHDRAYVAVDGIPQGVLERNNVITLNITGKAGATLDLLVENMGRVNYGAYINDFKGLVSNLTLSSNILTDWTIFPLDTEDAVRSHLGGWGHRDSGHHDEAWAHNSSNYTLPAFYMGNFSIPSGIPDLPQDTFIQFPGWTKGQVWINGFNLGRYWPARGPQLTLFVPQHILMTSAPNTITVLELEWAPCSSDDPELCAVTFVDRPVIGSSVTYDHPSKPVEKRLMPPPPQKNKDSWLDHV
UniProt P17900: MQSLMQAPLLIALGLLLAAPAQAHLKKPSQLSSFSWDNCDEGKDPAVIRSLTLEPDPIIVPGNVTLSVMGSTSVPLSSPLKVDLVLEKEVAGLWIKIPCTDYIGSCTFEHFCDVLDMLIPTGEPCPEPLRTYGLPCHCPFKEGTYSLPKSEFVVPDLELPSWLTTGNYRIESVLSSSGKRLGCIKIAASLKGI
UniProt P00367: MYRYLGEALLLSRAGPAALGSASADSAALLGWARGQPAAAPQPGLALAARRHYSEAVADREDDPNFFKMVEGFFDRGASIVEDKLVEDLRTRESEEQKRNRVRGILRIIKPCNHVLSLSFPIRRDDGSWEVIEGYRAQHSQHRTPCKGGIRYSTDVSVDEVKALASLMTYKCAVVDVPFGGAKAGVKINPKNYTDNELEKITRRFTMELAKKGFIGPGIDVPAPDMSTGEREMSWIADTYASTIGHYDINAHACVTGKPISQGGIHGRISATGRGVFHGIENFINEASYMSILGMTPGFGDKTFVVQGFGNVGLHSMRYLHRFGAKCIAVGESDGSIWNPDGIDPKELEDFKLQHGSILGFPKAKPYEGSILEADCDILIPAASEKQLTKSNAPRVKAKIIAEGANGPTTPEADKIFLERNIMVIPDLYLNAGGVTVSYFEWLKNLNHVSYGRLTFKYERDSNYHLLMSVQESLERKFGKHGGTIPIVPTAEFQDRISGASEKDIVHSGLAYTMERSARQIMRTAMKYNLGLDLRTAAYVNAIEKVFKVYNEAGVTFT
UniProt Q9BYB4: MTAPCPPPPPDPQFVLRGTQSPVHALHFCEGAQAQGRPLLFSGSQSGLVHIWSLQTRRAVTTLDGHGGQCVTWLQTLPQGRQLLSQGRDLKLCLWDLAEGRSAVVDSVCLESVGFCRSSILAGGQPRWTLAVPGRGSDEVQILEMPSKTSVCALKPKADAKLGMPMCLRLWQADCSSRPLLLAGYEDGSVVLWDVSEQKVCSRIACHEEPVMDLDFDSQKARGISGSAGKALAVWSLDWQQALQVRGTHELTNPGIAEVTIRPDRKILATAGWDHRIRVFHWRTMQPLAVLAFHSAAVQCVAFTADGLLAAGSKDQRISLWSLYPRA
UniProt Q8TBA6: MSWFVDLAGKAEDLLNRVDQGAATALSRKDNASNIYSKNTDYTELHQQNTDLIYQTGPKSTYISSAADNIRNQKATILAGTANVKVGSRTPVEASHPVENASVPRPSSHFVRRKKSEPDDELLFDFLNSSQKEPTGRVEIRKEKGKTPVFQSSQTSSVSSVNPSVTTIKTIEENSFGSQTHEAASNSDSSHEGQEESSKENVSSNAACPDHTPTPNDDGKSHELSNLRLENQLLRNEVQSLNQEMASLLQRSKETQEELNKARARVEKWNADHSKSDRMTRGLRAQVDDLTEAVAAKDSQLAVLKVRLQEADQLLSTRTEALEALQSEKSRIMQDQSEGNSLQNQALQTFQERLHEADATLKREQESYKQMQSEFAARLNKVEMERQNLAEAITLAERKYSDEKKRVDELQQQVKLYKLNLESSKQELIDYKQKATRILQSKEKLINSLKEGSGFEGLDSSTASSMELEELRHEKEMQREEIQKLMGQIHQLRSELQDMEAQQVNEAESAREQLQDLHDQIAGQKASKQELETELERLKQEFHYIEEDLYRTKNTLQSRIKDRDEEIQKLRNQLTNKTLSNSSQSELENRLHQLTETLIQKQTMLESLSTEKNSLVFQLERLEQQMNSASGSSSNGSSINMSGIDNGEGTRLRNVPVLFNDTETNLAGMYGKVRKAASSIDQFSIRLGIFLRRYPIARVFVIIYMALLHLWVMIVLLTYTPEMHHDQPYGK

What was measured:
Assay in all cases: log2 fold change, soluble protein after heating vs DMSO (PISA); higher = thermal stabilisation; K562 lysate, 10 uM; active = over 0.2 and 3.5 SD of the protein, either way, in both replicates (recomputed)
ibrutinib = compound: C=CC(=O)N1CCC[C@@H](n2nc(-c3ccc(Oc4ccccc4)cc3)c3c(N)ncnc32)C1 [ibrutinib]
Outline: (§1)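 K562 pellets were dounce-homogenised in PBS pH 7.4 containing 1 mM MgCl2, and the crude extract, at 1 mg/mL protein, was exposed to 10 μM compound for 30 min. Aliquots were heated for 3 min across 48°C-58°C, pooled, brought to 0.5% NP-40 at 4°C and spun at 21,000xg for 90 min, with the supernatant taken as soluble protein. TMTpro 16plex LC-MS/MS with equalised channel sums quantified that protein. Values are log-two fold changes in thermal stability relative to solvent controls, taken from duplicates.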

[1] = compound: CC(=O)c1cnc2ccc(-c3cc(Cl)c(O)c(Cl)c3)nc2c1N[C@H]1CC[C@H](CN(C)C)CC1
Outline: as §1

ralimetinib = compound: CC(C)(C)Cn1c(N)nc2ccc(-c3[nH]c(C(C)(C)C)nc3-c3ccc(F)cc3)nc21 [ralimetinib]
Outline: as §1

[2] = compound: CC(C)(O)CC(=O)NCCn1ccc2ncnc(Nc3ccc(Oc4cccc(C(F)(F)F)c4)c(Cl)c3)c21
Outline: as §1

[3] = compound: CC(C)C1=C2N=C(C=C(N2N=C1)NCC3=CC=CC=C3)NCCCCCCN
Outline: as §1

[4] = compound: CC1=C(C(CC(=O)N1)C2=CC=C(C=C2)C(F)(F)F)C(=O)NC3=C(C=C4C(=C3)C=NN4)F
Outline: as §1

[5] = compound: CC1=C(C2=C(C=C1)C(=O)C3=CC=CC=C3N2CCCN)C
Outline: as §1

[6] = compound: CC1=C(C=C(C=C1)NC(=O)C2=CC(=CC=C2)C(C)(C)C#N)NC3=CC4=C(C=C3)N=CN(C4=O)C
Outline: as §1

[7] = compound: CC1=C(C=C(C=C1)NC(=O)C2=CC(=CC=C2)N(C)C)NC(=O)C3=CC=C(C=C3)O
Outline: as §1

[8] = compound: CC1=CC=C(C=C1)SC2=C3C=C(SC3=CN=C2)C(=O)N
Outline: as §1

Measured: log2 fold change

GMPPA (UniProt Q96IJ6)
inactive: ibrutinib 0.021 | [1] -0.009 | ralimetinib 0.014 | [2] 0.003 | [3] 0.008 | [4] -0.018 | [5] -0.03 | [6] 0.024 | [7] 0.014 | [8] -0.017

GNE isoform 2 (UniProt Q9Y223)
inactive: ibrutinib -0.036 | [1] 0.009 | ralimetinib 0.033 | [2] -0.036 | [3] -0.007 | [4] -0.011 | [5] -0.036 | [6] -0.001 | [7] 0.069 | [8] 0.009

GID8 (UniProt Q9NWU2)
inactive: ibrutinib 0.12 | [1] -0.043 | ralimetinib -0.019 | [2] -0.043 | [3] 0.023 | [4] -0.046 | [5] -0.011 | [6] 0.032 | [7] 0.034 | [8] -0.013

GMEB1 (UniProt Q9Y692)
inactive: ibrutinib -0.041 | [1] 0.12 | ralimetinib -0.045 | [2] -0.088 | [3] -0.028 | [4] 0.009 | [5] -0.034 | [6] -0.01 | [7] 0.021 | [8] 0.046

GON4L (UniProt Q3T8J9)
inactive: ibrutinib 0.026 | [1] 0.022 | ralimetinib 0.029 | [2] -0.042 | [3] -0.04 | [4] -0.02 | [5] -0.017 | [6] 0.01 | [7] 0.002 | [8] -0.044

GMDS (UniProt O60547)
inactive: ibrutinib 0.042 | [1] -0.018 | ralimetinib 0.025 | [2] 0.01 | [3] -0.023 | [4] 0.031 | [5] 0.022 | [6] 0.027 | [7] 0.008 | [8] 0.015

GNPDA2 (UniProt Q8TDQ7)
inactive: ibrutinib -0.017 | [1] -0.02 | ralimetinib 0.028 | [2] 0 | [3] -0.006 | [4] -0.026 | [5] -0.031 | [6] 0.001 | [7] 0 | [8] 0.018

GIGYF2 (UniProt Q6Y7W6)
inactive: ibrutinib -0.01 | [1] 0.004 | ralimetinib 0.014 | [2] -0.016 | [3] 0.029 | [4] -0.015 | [5] 0.01 | [6] 0.007 | [7] -0.006 | [8] 0.023

GOLGA1 (UniProt Q92805)
inactive: ibrutinib 0.128 | [1] 0.008 | ralimetinib -0.024 | [2] -0.018 | [3] -0.019 | [4] 0.081 | [5] 0.027 | [6] -0.023 | [7] 0.019 | [8] 0.034

GINS2 (UniProt Q9Y248)
inactive: ibrutinib 0.093 | [1] -0.014 | ralimetinib -0.02 | [2] -0.04 | [3] 0.019 | [4] -0.031 | [5] 0.046 | [6] 0.026 | [7] 0.015 | [8] 0.049

GPHN isoform 2 (UniProt Q9NQX3)
inactive: ibrutinib 0.016 | [1] -0.001 | ralimetinib 0.01 | [2] -0.014 | [3] -0.055 | [4] -0.007 | [5] -0.014 | [6] 0.004 | [7] 0.015 | [8] -0.023

GNL2 (UniProt Q13823)
inactive: ibrutinib 0.012 | [1] 0.032 | ralimetinib -0.015 | [2] -0.018 | [3] -0.002 | [4] 0.019 | [5] -0.004 | [6] 0.013 | [7] -0.01 | [8] 0.01

GOT2 (UniProt P00505)
inactive: ibrutinib 0.021 | [1] -0.006 | ralimetinib 0.003 | [2] 0.003 | [3] -0.018 | [4] -0.019 | [5] -0.019 | [6] 0.007 | [7] -0.014 | [8] -0.017

GOLPH3L (UniProt Q9H4A5)
inactive: ibrutinib 0.058 | [1] 0.005 | ralimetinib -0.058 | [2] 0.071 | [3] 0.009 | [4] -0.042 | [5] -0.01 | [6] 0.114 | [7] -0.029 | [8] 0.006

GOLGA4 isoform 5 (UniProt Q13439)
inactive: ibrutinib 0.021 | [1] 0.003 | ralimetinib 0.018 | [2] -0.014 | [3] 0.002 | [4] 0.01 | [5] -0.006 | [6] 0.016 | [7] 0.035 | [8] -0.001

GLOD4 isoform 2 (UniProt Q9HC38)
inactive: ibrutinib -0.009 | [1] 0 | ralimetinib -0.028 | [2] 0.024 | [3] -0.018 | [4] -0.037 | [5] 0.028 | [6] -0.018 | [7] -0.004 | [8] 0.006

GLB1 (UniProt P16278)
inactive: ibrutinib 0.002 | [1] -0.008 | ralimetinib -0.005 | [2] -0.03 | [3] 0.003 | [4] -0.009 | [5] -0.001 | [6] -0.011 | [7] 0.025 | [8] 0.015

GM2A (UniProt P17900)
inactive: ibrutinib 0.04 | [1] -0.061 | ralimetinib -0.06 | [2] 0.02 | [3] -0.031 | [4] 0.045 | [5] 0.051 | [6] 0.045 | [7] -0.054 | [8] -0.018

GIPC3 (UniProt Q8TF64)
inactive: ibrutinib -0.021 | [1] -0.078 | ralimetinib -0.019 | [2] -0.011 | [3] 0.022 | [4] 0.282 | [5] -0.019 | [6] 0.185 | [7] -0.033 | [8] -0.13

GLUD1 (UniProt P00367)
inactive: ibrutinib -0.017 | [1] 0.063 | ralimetinib -0.002 | [2] -0.009 | [3] -0.02 | [4] -0.02 | [5] 0.019 | [6] 0.027 | [7] -0.018 | [8] -0.006

Quoted at random: two entries already listed
GLUD1 (UniProt P00367)
inactive: ibrutinib -0.017 | [1] 0.063 | ralimetinib -0.002 | [2] -0.009 | [3] -0.02 | [4] -0.02 | [5] 0.019 | [6] 0.027 | [7] -0.018 | [8] -0.006

GLB1 (UniProt P16278)
inactive: ibrutinib 0.002 | [1] -0.008 | ralimetinib -0.005 | [2] -0.03 | [3] 0.003 | [4] -0.009 | [5] -0.001 | [6] -0.011 | [7] 0.025 | [8] 0.015

(cont.)

GLB1L2 (UniProt Q8IW92)
inactive: ibrutinib 0.011 | [1] -0.023 | ralimetinib 0.015 | [2] -0.013 | [3] 0.013 | [4] -0.15 | [5] -0.036 | [6] -0.014 | [7] 0.056 | [8] 0.041

GMNN (UniProt O75496)
inactive: ibrutinib 0.043 | [1] 0.001 | ralimetinib 0.013 | [2] -0.006 | [3] -0.023 | [4] -0.007 | [5] 0.028 | [6] 0.018 | [7] -0.02 | [8] -0.003

GNB1L (UniProt Q9BYB4)
inactive: ibrutinib -0.022 | [1] -0.016 | ralimetinib 0.024 | [2] -0.014 | [3] -0.014 | [4] -0.001 | [5] 0.023 | [6] 0.094 | [7] -0.068 | [8] -0.019

GHDC (UniProt Q8N2G8)
inactive: ibrutinib 0.073 | [1] 0.022 | ralimetinib 0.023 | [2] 0.067 | [3] 0.058 | [4] 0.035 | [5] 0.07 | [6] 0.011 | [7] 0.014 | [8] 0.034

GOLGA2 (UniProt Q08379)
inactive: ibrutinib 0 | [1] -0.021 | ralimetinib -0.028 | [2] 0.016 | [3] -0.002 | [4] 0.019 | [5] -0.027 | [6] 0.024 | [7] 0.03 | [8] -0.02

GLMN (UniProt Q92990)
inactive: ibrutinib -0.037 | [1] 0.021 | ralimetinib 0.015 | [2] -0.008 | [3] -0.028 | [4] -0.007 | [5] -0.035 | [6] -0.013 | [7] 0.015 | [8] -0.015

GPAT4 (UniProt Q86UL3)
inactive: ibrutinib 0.008 | [1] -0.013 | ralimetinib -0.017 | [2] 0.024 | [3] -0.032 | [4] -0.009 | [5] 0.015 | [6] -0.023 | [7] 0.014 | [8] -0.029

GNB4 (UniProt Q9HAV0)
inactive: ibrutinib -0.104 | [1] -0.071 | ralimetinib 0.009 | [2] -0.026 | [3] 0 | [4] -0.05 | [5] -0.036 | [6] 0.073 | [7] 0.084 | [8] 0.202

GLCE (UniProt O94923)
inactive: ibrutinib 0.018 | [1] 0.004 | ralimetinib 0.018 | [2] -0.051 | [3] -0.091 | [4] 0.177 | [5] -0.051 | [6] -0.025 | [7] -0.111 | [8] -0.005

GOLGA5 (UniProt Q8TBA6)
inactive: ibrutinib 0.002 | [1] 0.03 | ralimetinib -0.034 | [2] -0.006 | [3] -0.049 | [4] -0.012 | [5] 0.002 | [6] 0.003 | [7] 0.032 | [8] -0.018
